In the supplement of paper PMC10849652:
The other results are listed elsewhere or left out.

The chains behind the UniProt entries cited, without tags or fusion partners. Where a name states a change or a piece, a line headed by the entry shows the natural chain unless it says otherwise.
UniProt Q9HBI1: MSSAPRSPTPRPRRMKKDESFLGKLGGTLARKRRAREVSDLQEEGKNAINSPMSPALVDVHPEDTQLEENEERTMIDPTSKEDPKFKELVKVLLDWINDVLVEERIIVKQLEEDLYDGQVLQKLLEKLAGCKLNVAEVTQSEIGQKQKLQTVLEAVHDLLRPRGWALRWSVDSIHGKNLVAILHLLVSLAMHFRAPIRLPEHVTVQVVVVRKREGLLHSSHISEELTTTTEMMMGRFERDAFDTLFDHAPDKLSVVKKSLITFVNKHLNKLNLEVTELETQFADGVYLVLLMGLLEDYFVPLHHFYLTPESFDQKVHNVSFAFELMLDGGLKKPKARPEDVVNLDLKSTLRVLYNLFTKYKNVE
UniProt P35227: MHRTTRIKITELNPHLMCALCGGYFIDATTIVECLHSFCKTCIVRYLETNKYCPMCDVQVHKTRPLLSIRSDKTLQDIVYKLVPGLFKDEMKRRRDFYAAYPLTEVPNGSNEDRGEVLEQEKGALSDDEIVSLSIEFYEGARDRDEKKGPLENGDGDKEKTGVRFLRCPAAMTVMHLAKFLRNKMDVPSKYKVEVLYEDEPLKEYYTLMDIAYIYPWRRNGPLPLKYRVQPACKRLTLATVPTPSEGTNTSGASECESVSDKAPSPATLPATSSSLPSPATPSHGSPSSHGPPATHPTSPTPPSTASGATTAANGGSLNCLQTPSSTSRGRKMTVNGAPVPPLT
UniProt P0DJ07: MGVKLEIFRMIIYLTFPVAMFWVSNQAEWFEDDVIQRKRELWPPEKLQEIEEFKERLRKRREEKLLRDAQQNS
UniProt Q16822, whole entry, looked up: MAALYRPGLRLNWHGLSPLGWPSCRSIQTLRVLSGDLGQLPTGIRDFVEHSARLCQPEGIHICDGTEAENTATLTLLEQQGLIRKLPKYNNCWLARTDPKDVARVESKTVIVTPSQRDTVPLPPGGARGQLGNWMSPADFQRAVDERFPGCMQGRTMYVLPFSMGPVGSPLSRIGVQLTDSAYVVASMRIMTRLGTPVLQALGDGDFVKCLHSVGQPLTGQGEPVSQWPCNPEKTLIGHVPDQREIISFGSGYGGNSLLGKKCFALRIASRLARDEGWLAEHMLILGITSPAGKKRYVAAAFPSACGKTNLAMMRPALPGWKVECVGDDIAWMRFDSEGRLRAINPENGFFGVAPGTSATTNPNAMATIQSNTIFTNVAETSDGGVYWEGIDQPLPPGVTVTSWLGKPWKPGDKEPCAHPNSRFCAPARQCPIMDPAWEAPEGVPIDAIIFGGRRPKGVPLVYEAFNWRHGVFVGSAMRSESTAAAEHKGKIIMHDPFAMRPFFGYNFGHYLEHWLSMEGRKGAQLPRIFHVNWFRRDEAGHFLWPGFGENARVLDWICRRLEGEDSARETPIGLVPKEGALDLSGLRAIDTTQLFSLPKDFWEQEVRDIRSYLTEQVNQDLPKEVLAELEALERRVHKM
UniProt O15530: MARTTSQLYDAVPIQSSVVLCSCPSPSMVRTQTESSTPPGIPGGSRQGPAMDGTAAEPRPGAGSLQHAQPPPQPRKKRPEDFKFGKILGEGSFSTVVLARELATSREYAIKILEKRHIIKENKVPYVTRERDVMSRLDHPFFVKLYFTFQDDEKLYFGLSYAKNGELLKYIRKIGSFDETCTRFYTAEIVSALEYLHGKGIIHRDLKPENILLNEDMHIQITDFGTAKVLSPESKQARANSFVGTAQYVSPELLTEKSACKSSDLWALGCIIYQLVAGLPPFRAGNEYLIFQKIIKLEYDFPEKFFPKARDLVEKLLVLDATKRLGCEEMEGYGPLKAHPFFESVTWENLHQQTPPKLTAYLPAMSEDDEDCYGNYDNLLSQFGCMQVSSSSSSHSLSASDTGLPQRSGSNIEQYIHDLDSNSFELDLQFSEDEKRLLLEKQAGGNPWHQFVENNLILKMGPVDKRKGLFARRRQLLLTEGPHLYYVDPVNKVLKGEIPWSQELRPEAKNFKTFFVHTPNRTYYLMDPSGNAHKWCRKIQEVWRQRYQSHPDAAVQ
UniProt O75340: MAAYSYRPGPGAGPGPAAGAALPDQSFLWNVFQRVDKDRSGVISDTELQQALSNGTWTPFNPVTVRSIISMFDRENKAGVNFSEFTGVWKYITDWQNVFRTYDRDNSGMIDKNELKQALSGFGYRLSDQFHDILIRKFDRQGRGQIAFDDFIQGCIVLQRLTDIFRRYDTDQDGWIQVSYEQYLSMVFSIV
UniProt Q96KB5: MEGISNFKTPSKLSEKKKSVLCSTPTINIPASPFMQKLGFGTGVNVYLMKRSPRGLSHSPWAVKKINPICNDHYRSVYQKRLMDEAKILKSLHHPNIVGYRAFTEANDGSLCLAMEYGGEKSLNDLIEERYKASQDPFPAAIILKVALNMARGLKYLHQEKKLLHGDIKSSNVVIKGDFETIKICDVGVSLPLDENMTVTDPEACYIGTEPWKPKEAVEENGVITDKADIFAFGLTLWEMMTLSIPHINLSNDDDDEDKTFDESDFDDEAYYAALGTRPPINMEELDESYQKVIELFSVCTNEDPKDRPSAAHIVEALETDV
UniProt P30039: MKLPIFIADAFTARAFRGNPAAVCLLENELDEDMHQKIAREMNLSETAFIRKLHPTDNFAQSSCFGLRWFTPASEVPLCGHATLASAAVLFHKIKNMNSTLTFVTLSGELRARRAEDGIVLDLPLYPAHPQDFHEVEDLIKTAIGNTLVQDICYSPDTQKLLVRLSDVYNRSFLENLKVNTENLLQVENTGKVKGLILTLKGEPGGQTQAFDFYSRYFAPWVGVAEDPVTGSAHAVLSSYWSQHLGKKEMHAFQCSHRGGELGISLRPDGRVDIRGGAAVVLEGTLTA
UniProt Q9Y5Y5: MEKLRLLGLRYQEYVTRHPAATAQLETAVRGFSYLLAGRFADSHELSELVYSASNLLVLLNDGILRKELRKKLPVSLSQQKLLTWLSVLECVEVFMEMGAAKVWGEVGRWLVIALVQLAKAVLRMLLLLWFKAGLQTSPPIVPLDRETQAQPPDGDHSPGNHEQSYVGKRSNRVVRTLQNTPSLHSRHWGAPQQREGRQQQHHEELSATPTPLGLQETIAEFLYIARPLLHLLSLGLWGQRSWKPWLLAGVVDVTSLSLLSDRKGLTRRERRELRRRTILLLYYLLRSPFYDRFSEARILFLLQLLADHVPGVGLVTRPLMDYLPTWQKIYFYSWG
UniProt O60925, whole entry, looked up: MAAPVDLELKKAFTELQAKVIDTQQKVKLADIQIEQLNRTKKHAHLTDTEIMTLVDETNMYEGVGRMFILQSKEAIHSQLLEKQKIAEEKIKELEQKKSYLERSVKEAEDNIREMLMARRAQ
UniProt P30086: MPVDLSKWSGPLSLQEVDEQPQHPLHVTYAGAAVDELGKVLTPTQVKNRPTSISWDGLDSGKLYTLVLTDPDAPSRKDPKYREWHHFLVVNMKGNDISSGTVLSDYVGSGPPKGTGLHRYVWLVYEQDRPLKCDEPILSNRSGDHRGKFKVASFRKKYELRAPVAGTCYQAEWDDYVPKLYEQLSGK
UniProt P57721, whole entry, looked up: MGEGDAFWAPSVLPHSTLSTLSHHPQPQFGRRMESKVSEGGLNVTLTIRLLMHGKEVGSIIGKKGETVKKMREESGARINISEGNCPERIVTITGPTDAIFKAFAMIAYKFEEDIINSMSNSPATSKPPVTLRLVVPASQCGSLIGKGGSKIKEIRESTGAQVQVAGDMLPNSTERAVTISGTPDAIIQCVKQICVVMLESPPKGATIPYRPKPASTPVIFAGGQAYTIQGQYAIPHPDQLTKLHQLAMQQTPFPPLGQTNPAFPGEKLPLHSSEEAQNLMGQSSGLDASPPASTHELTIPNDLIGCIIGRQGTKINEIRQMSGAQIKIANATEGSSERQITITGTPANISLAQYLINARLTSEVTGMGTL
UniProt P09874, whole entry, looked up: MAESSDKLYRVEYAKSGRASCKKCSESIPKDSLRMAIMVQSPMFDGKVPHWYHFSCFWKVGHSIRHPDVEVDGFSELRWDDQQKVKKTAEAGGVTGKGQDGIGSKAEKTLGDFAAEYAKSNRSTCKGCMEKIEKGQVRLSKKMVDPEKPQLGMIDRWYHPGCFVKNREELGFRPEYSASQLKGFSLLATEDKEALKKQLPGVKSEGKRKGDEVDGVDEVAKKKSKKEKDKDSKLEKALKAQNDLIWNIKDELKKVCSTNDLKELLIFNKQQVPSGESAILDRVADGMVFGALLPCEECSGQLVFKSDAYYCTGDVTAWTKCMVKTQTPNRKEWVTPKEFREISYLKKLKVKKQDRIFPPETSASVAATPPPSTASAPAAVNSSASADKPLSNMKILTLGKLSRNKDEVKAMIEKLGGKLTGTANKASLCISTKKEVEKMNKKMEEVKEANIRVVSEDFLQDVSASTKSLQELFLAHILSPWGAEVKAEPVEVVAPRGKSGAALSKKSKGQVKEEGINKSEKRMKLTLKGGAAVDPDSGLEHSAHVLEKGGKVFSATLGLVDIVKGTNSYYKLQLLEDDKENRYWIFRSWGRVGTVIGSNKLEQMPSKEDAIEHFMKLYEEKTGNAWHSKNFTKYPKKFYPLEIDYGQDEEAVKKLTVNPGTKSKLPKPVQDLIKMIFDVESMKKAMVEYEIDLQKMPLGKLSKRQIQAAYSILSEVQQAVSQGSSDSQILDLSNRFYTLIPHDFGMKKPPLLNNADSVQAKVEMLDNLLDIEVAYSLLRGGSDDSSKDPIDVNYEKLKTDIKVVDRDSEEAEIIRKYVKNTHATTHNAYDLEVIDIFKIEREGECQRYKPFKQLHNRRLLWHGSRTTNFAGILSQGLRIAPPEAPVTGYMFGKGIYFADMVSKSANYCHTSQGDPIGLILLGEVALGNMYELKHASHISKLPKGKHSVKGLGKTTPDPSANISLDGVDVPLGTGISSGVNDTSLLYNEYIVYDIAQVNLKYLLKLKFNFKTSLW
UniProt P07737, whole entry, looked up: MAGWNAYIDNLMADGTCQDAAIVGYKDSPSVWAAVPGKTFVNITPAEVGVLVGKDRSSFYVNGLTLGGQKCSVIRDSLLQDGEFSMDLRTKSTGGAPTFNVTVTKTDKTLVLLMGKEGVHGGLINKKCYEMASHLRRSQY
UniProt Q8N5Y8: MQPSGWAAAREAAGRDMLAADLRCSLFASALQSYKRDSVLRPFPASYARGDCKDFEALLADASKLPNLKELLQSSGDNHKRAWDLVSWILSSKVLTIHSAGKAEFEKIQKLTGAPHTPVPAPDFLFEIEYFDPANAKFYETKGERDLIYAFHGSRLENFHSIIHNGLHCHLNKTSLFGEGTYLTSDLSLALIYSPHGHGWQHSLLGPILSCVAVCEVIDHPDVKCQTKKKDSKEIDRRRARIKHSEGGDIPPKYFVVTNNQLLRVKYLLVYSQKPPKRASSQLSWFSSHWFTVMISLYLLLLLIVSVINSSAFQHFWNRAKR
UniProt Q01813: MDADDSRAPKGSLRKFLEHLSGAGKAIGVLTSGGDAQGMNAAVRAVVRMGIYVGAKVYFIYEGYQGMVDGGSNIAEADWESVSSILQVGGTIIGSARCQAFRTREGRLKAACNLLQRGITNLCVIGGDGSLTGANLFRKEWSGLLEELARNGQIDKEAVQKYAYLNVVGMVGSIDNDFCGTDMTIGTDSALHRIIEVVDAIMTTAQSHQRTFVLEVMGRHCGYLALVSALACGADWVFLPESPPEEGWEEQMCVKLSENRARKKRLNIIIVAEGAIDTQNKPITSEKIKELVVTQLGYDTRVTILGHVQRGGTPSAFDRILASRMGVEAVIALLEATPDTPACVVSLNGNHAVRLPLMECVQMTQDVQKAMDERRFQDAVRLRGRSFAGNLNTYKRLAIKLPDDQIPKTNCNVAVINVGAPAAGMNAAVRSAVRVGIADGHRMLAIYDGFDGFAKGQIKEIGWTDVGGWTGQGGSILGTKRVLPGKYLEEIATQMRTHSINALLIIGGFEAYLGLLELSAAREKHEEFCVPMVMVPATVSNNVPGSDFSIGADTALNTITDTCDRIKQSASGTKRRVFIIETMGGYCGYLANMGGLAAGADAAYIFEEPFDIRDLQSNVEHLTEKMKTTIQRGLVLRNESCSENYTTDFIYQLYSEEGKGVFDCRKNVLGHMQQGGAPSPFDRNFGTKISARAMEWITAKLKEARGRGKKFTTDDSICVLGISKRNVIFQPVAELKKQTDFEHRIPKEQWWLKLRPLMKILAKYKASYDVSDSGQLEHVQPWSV
UniProt Q9UHG3: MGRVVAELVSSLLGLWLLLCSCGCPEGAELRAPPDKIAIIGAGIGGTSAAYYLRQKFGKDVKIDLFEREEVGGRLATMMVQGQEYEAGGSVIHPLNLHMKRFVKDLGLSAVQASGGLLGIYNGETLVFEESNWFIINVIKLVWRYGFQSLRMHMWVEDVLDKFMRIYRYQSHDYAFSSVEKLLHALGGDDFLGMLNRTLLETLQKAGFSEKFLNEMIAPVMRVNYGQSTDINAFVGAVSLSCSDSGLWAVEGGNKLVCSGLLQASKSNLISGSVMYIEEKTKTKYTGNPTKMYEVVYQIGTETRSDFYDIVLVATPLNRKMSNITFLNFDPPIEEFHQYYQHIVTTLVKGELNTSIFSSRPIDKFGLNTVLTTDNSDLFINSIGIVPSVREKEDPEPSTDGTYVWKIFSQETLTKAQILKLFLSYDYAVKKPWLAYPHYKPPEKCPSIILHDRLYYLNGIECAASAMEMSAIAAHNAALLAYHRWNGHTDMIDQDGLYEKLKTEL

Tests used:
Test in all cases: log2 fold change, soluble protein after heating vs DMSO (PISA); higher = thermal stabilisation; K562 lysate, 10 uM; active = over 0.2 and 3.5 SD of the protein, either way, in both replicates (recomputed)
alvocidib = compound: CN1CC[C@H](c2c(O)cc(O)c3c(=O)cc(-c4ccccc4Cl)oc23)[C@H](O)C1 [alvocidib]
Summary of the method: (§1)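 Thermal stability, expressed as log-two fold change relative to solvent controls, is given from duplicates. Crude K562 extract in PBS pH 7.4 with 1 mM MgCl2, at 1 mg/mL protein, was treated with 10 μM compound for 30 min and heated in aliquots for 3 min across 48°C-58°C. After pooling, adjustment to 0.5% NP-40 at 4°C and centrifugation at 21,000xg for 90 min, supernatant protein was measured by TMTpro 16plex LC-MS/MS with channel sums equalised.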

Tubastatin A = compound: CN1CCc2c(c3ccccc3n2Cc2ccc(C(=O)NO)cc2)C1 [Tubastatin A]
Summary of the method: as §1

[1] = compound: CNC(=O)C1=CC=CC=C1NC2=NC(=NC=C2Cl)NC3=C(C=C(C=C3)N4CCOCC4)OC
Summary of the method: as §1

defactinib = compound: CNC(=O)c1ccc(Nc2ncc(C(F)(F)F)c(NCc3nccnc3N(C)S(C)(=O)=O)n2)cc1 [defactinib]
Summary of the method: as §1

[2] = compound: CNc1nc(-c2ccc3c(N)n[nH]c3c2)cc(N2C[C@@H](C(=O)NC3CCCCC3)CC[C@H]2C)n1
Summary of the method: as §1

encorafenib = compound: COC(=O)N[C@@H](C)CNc1nccc(-c2cn(C(C)C)nc2-c2cc(Cl)cc(NS(C)(=O)=O)c2F)n1 [encorafenib]
Summary of the method: as §1

[3] = compound: COC(=O)[C@H](CCSC)NC(=O)C1=C(C=C(C=C1)NC[C@H](CS)N)C2=CC=CC=C2
Summary of the method: as §1

alisertib = compound: COc1cc(Nc2ncc3c(n2)-c2ccc(Cl)cc2C(c2c(F)cccc2OC)=NC3)ccc1C(=O)O [alisertib]
Summary of the method: as §1

[4] = compound: COc1cc2nc(-c3cc(F)ccc3O)nc(N[C@@H]3CNC[C@H]3C(C)(C)O)c2cc1OC
Summary of the method: as §1

gefitinib = compound: COc1cc2ncnc(Nc3ccc(F)c(Cl)c3)c2cc1OCCCN1CCOCC1 [gefitinib]
Summary of the method: as §1

Target | log2 fold change (alvocidib) | log2 fold change (Tubastatin A) | log2 fold change [1] | log2 fold change (defactinib) | log2 fold change [2] | log2 fold change (encorafenib) | log2 fold change [3] | log2 fold change (alisertib) | log2 fold change [4] | log2 fold change (gefitinib)
PARVB (UniProt Q9HBI1) | inactive: 0.039 | inactive: -0.04 | inactive: -0.015 | inactive: 0.016 | inactive: -0.002 | inactive: 0.019 | inactive: 0.046 | inactive: 0.022 | inactive: 0.011 | inactive: 0.083
PCGF2 (UniProt P35227) | inactive: 0.006 | inactive: -0.065 | inactive: 0.036 | inactive: 0.047 | inactive: -0.031 | inactive: 0.052 | inactive: 0.031 | inactive: -0.032 | inactive: -0.011 | inactive: -0.005
PFKL isoform 2 (UniProt P17858) | inactive: -0.025 | inactive: 0.025 | inactive: 0.069 | inactive: -0.033 | inactive: 0.036 | inactive: -0.025 | inactive: -0.064 | inactive: -0.021 | inactive: 0.01 | inactive: 0.009
PET100 (UniProt P0DJ07) | inactive: 0.058 | inactive: 0.113 | inactive: -0.024 | inactive: -0.044 | inactive: -0.106 | inactive: -0.257 | inactive: -0.042 | inactive: -0.087 | inactive: -0.005 | inactive: 0.019
PCBP1 (UniProt Q15365) | inactive: -0.016 | inactive: 0.046 | inactive: 0.026 | inactive: -0.003 | inactive: 0.046 | inactive: 0.023 | inactive: -0.077 | inactive: 0.009 | inactive: 0.013 | inactive: 0.01
PDE4DIP isoform 4 (UniProt Q5VU43) | inactive: -0.038 | inactive: 0.004 | inactive: -0.003 | inactive: -0.018 | inactive: 0.036 | inactive: 0.006 | inactive: 0.004 | inactive: 0.023 | inactive: -0.007 | inactive: -0.059
PASK (UniProt Q96RG2) | inactive: 0.02 | inactive: -0.034 | inactive: 0.083 | inactive: 0.044 | inactive: 0.039 | inactive: 0.04 | inactive: 0 | inactive: -0.083 | inactive: -0.03 | inactive: -0.007
PCK2 (UniProt Q16822) | inactive: 0.023 | inactive: 0.035 | inactive: -0.026 | inactive: 0.019 | inactive: 0.033 | inactive: -0.017 | inactive: -0.017 | inactive: 0.007 | inactive: -0.012 | inactive: -0.013
PDPK1 (UniProt O15530) | inactive: 0.009 | inactive: -0.121 | inactive: 0.107 | inactive: 0.21 | active: 0.501 | inactive: -0.019 | inactive: 0.109 | inactive: 0.153 | inactive: 0.15 | inactive: 0.016
PDCD6 isoform 2 (UniProt O75340) | inactive: 0.047 | inactive: -0.035 | – | – | – | – | – | – | – | –
PFKFB3 isoform 4 (UniProt Q16875) | inactive: -0.012 | inactive: -0.05 | inactive: 0.058 | inactive: -0.006 | inactive: 0.012 | inactive: 0.041 | inactive: -0.137 | inactive: -0.01 | inactive: 0 | inactive: -0.01
PEX13 (UniProt Q92968) | inactive: 0.037 | inactive: 0.037 | inactive: 0.043 | inactive: 0.037 | inactive: -0.061 | inactive: -0.069 | inactive: -0.169 | inactive: -0.008 | inactive: -0.163 | inactive: -0.015
PBK (UniProt Q96KB5) | inactive: 0.013 | inactive: -0.041 | inactive: -0.001 | inactive: -0.004 | inactive: -0.015 | inactive: -0.011 | inactive: 0.099 | inactive: -0.013 | inactive: -0.003 | inactive: -0.023
PBLD (UniProt P30039) | inactive: 0.038 | inactive: 0.197 | inactive: -0.042 | inactive: -0.047 | inactive: 0.176 | inactive: 0.04 | inactive: 0.118 | inactive: 0.018 | inactive: -0.012 | inactive: -0.006
PEX16 isoform 2 (UniProt Q9Y5Y5) | inactive: -0.119 | inactive: -0.137 | inactive: 0.061 | inactive: 0.054 | inactive: -0.046 | inactive: 0.053 | inactive: 0.068 | inactive: -0.013 | inactive: -0.13 | inactive: 0.107
PFDN1 (UniProt O60925) | inactive: 0.116 | inactive: 0.086 | inactive: 0.055 | inactive: 0.054 | inactive: -0.023 | inactive: -0.039 | inactive: -0.019 | inactive: 0.059 | inactive: -0.044 | inactive: -0.146
PEX11B (UniProt O96011) | inactive: 0.076 | inactive: 0.088 | inactive: 0.033 | inactive: 0.046 | inactive: 0.036 | inactive: 0.012 | inactive: -0.026 | inactive: 0.075 | inactive: -0.023 | inactive: 0.018
PCF11 (UniProt O94913) | inactive: -0.018 | inactive: -0.12 | inactive: 0.002 | inactive: 0.041 | inactive: 0.078 | inactive: 0.036 | inactive: -0.021 | inactive: 0.009 | inactive: 0.042 | inactive: 0.002
PEBP1 (UniProt P30086) | inactive: 0.023 | inactive: 0.026 | inactive: 0.005 | inactive: 0.007 | inactive: 0.01 | inactive: -0.044 | inactive: -0.029 | inactive: -0.006 | inactive: 0.003 | inactive: 0.001
PCM1 (UniProt Q15154) | inactive: -0.003 | inactive: -0.048 | inactive: 0 | inactive: 0.014 | inactive: 0.018 | inactive: 0.042 | inactive: -0.029 | inactive: -0.04 | inactive: 0.021 | inactive: 0.002
PCBP3 (UniProt P57721) | inactive: -0.015 | inactive: 0.005 | inactive: 0.022 | inactive: -0.039 | inactive: 0.042 | inactive: -0.006 | inactive: -0.023 | inactive: 0.019 | inactive: 0.015 | inactive: -0.023
PARP1 (UniProt P09874) | inactive: 0.013 | inactive: -0.043 | inactive: 0.021 | inactive: 0.006 | inactive: -0.01 | inactive: -0.013 | inactive: 0.033 | inactive: 0.003 | inactive: -0.003 | inactive: -0.03
PDCL3 (UniProt Q9H2J4) | inactive: -0.005 | inactive: 0.066 | inactive: 0.008 | inactive: -0.026 | inactive: 0.102 | inactive: -0.033 | inactive: -0.01 | inactive: -0.011 | inactive: 0.014 | inactive: -0.018
PGAM5 (UniProt Q96HS1) | inactive: 0.004 | inactive: 0.022 | inactive: 0.001 | inactive: 0.017 | inactive: -0.019 | inactive: 0.058 | inactive: -0.103 | inactive: -0.019 | inactive: -0.006 | inactive: 0.019
PCNA (UniProt P12004) | inactive: -0.022 | inactive: 0.001 | inactive: -0.019 | inactive: -0.01 | inactive: -0.023 | inactive: -0.016 | inactive: -0.009 | inactive: 0.012 | inactive: -0.002 | inactive: -0.006
PFN1 (UniProt P07737) | inactive: -0.002 | inactive: -0.01 | inactive: -0.007 | inactive: 0.006 | inactive: -0.024 | inactive: -0.005 | inactive: -0.097 | inactive: 0.004 | inactive: -0.013 | inactive: 0.004
PARP16 isoform 3 (UniProt Q8N5Y8) | inactive: -0.082 | inactive: 0.081 | inactive: -0.051 | inactive: 0.019 | inactive: 0.031 | inactive: -0.077 | inactive: -0.027 | inactive: 0.01 | inactive: -0.024 | inactive: 0.109
PFKP (UniProt Q01813) | inactive: 0.019 | inactive: 0.031 | inactive: 0.029 | inactive: -0.009 | inactive: -0.016 | inactive: -0.041 | inactive: -0.001 | inactive: -0.004 | inactive: 0.009 | inactive: -0.006
PEA15 isoform 2 (UniProt Q15121) | inactive: 0.045 | inactive: 0.098 | inactive: 0.025 | inactive: 0.03 | inactive: 0.019 | inactive: -0.011 | inactive: -0.039 | inactive: -0.014 | inactive: -0.025 | inactive: -0.1
PCYOX1 (UniProt Q9UHG3) | inactive: 0.012 | inactive: 0.019 | inactive: -0.022 | inactive: 0.001 | inactive: -0.088 | inactive: 0.009 | inactive: -0.075 | inactive: -0.014 | inactive: 0.005 | inactive: 0.006

Reformatted: results already given.
Target	log2 fold change (alvocidib)	log2 fold change (Tubastatin A)	log2 fold change [1]	log2 fold change (defactinib)	log2 fold change [2]	log2 fold change (encorafenib)	log2 fold change [3]	log2 fold change (alisertib)	log2 fold change [4]	log2 fold change (gefitinib)
PCNA (UniProt P12004)	inactive: -0.022	inactive: 0.001	inactive: -0.019	inactive: -0.01	inactive: -0.023	inactive: -0.016	inactive: -0.009	inactive: 0.012	inactive: -0.002	inactive: -0.006
PFN1 (UniProt P07737)	inactive: -0.002	inactive: -0.01	inactive: -0.007	inactive: 0.006	inactive: -0.024	inactive: -0.005	inactive: -0.097	inactive: 0.004	inactive: -0.013	inactive: 0.004
